From PubChem BioAssay AID540256 (National Center for Advancing Translational Sciences (NCATS), 2011)
Screen size: about 300,000 compounds; about 3,700 (1.2%) were called active. The inconclusive results got no clear call from the source; some entries with a clear call stand among them for comparison. Calls come from the whole dose curve; tested in HEK293 cells. Where the call is inconclusive, the potency comes from a doubtful curve fit.

Assay: qHTS for Inhibitors of binding or entry into cells for Lassa Virus; note: nearly all actives have a fitted effect of over 50% in size
Conditions: Lassa virus pseudotype entry inhibition, cell reporter; series mostly up to 37.9 µM
Potency is the fitted concentration of half-maximal effect.

SMILES	Potency
CSc1nnc(-c2ccncc2)n1CCCN1CCCC1=O	inconclusive: 10.3 µM [inhibitor, partial curve, poor fit]
CCOC(=O)N1CCN(C(=O)Cn2nc(C)n3nc(-c4ccccc4)cc3c2=O)CC1	inconclusive: 0.562 µM [activator, full curve, poor fit]
O=C(OCN1C(=O)c2ccccc2C1=O)c1cc(S(=O)(=O)N2CCOCC2)ccc1F	inactive
CCOc1cccc(CC(=O)N2CCc3c([nH]c4ccccc34)C2c2ccc(OC)cc2)c1OCC (stereo not given)	inconclusive: 35.5 µM [inhibitor, single point]
COc1ccc(C2C(C(=O)Nc3cc(OC)c(OC)c(OC)c3)c3ccccc3C(=O)N2C)cc1 (stereo not given)	inconclusive: 3.98 µM [inhibitor, full curve, poor fit]
Cc1ccc(C)c(NC(=S)NC(NC(=O)Cc2ccccc2)C(Cl)(Cl)Cl)c1 (stereo not given)	inconclusive: 5.62 µM [inhibitor, partial curve]
COc1ccc(-c2nc(CSCC(=O)N3CCN(c4cccc(C)c4)C(C)C3)c(C)o2)cc1OC (stereo not given)	inconclusive: 29.1 µM [inhibitor, single point]
Cc1cccc(/C(N)=N/OC(=O)C23CC4CC(CC(C4)C2)C3)c1	inconclusive: 18.4 µM [activator, partial curve, poor fit]
CC(Sc1nc(N)cc(=O)[nH]1)C(=O)N1CCOCC1 (stereo not given)	inconclusive: 1.26 µM [inhibitor, single point]
O=C(Nc1ccc(Br)cc1)c1ccc(F)c(S(=O)(=O)N2CCN(c3ccccn3)CC2)c1	inconclusive: 22.4 µM [inhibitor, single point]
CCN1c2ccccc2-c2nc3ccccc3n2C1c1ccco1 (stereo not given)	inactive
C/C(=N\NC(=S)NCc1ccccc1)c1ccccc1F	inconclusive: 1 µM [inhibitor, full curve, poor fit]
CCOC(=O)CNC(c1ccccc1)c1cc(Br)ccc1NC(=O)OCC (stereo not given)	inconclusive: 5.01 µM [inhibitor, partial curve, poor fit]
COCCN(C(=O)COC(=O)c1ccccc1NCc1ccco1)c1c(N)n(Cc2ccccc2)c(=O)[nH]c1=O	inconclusive: 14.1 µM [inhibitor, partial curve, poor fit]
COc1ccc(CCNC(=O)CCc2c(C)nc3c(-c4ccc(F)cc4)c(C)nn3c2C)cc1OC	inconclusive: 1.58 µM [activator, partial curve, poor fit]
COc1ccc(N=C2NC(=O)/C(=C\C=C\c3ccco3)S2)cc1	inconclusive: 2.24 µM [inhibitor, partial curve, poor fit]
COc1ccccc1Cn1c(=O)c2ccccc2n2c(Sc3ncnc4sccc34)nnc12	inconclusive: 29.1 µM [inhibitor, single point]
Cc1ccccc1C(=O)NNC(=O)C12CC3CC(CC(C3)C1)C2	inactive
O=C1CC(c2ccccc2Cl)CC(O)=C1C=Nc1ccccc1 (stereo not given)	inconclusive: 0.631 µM [inhibitor, partial curve, poor fit]
COc1ccc(/C=C\C(=O)c2c(O)ccc3c(C)cc(=O)oc23)cc1OC	inconclusive: 12.6 µM [inhibitor, partial curve]
CCc1ccc(C(=O)NNc2ccc(S(N)(=O)=O)cc2)cc1	inconclusive: 20 µM [activator, single point]
CN1CCN(c2ccc(NC(=O)c3ccc4c(c3)[nH]c(=O)n4Cc3ccc(F)cc3)cc2)CC1	inconclusive: 35.5 µM [inhibitor, single point]

SMILES	Potency
CCOC(=O)c1ccc(-c2cc(C)no2)[nH]1	inactive
O=C(Nc1ccc(S(=O)(=O)Nc2ncccn2)cc1)c1cccnc1	inactive
O=C1C(C=NCc2cccnc2)=C(O)c2ccccc21	inconclusive: 12.6 µM [inhibitor, partial curve, poor fit]
CCn1c(=N)n(CC(=O)c2ccc(OC)cc2)c2ccccc21	inconclusive: 20 µM [inhibitor, partial curve, poor fit]
COc1ccc(CCN2C(=O)c3cccc4c(C(=O)N5CCCCC5)ccc(c34)C2=O)cc1OC	inconclusive: 35.5 µM [inhibitor, single point]
CCN(c1ccccc1)S(=O)(=O)c1nnc(NC(=O)C(C)Oc2ccccc2)s1 (stereo not given)	inconclusive: 2.51 µM [activator, partial curve, poor fit]
COc1ccc(N(C(=O)c2ccc(C)cc2)S(=O)(=O)c2ccc(Cl)cc2)cc1	inconclusive: 1 µM [inhibitor, partial curve, poor fit]
CCOc1ccc(N(Cc2cc3cc(C)ccc3[nH]c2=O)S(=O)(=O)c2ccccc2)cc1	inconclusive: 0.891 µM [inhibitor, partial curve, poor fit]
NC(=O)c1c(NC(=O)c2ccccc2F)sc2c1CCCC2	inconclusive: 17.8 µM [activator, single point]
COc1ccc(C2c3c(-c4cc(Cl)c(C)cc4O)n[nH]c3C(=O)N2Cc2cccnc2)cc1OC (stereo not given)	inconclusive: 14.1 µM [inhibitor, partial curve]
O=C1CN(C(=O)c2ccc(S(=O)(=O)N3CCCC3)cc2)C(c2ccc(F)cc2)c2cc(F)ccc2N1 (stereo not given)	inconclusive: 5.62 µM [activator, single point]
CC1(C)Cc2noc(N)c2C(C)(C)N1OC(=O)c1ccccc1	inconclusive: 3.16 µM [inhibitor, partial curve, poor fit]
COc1ccccc1N(Cc1ccccc1)S(=O)(=O)c1cccc(C(=O)Nc2ccc(C(C)=O)cc2)c1	inactive
COc1ccccc1-c1noc(CCC(=O)Nc2cccc(C)c2)n1	inactive
O=C(NCc1ccco1)Nc1cccc(-c2ccccc2)c1	inactive
COc1ccccc1Nc1nc(C)nc2c1oc1ccccc12	inconclusive: 2.82 µM [inhibitor, partial curve, poor fit]
O=C(CN1C(=O)C2(OCCO2)c2ccccc21)c1ccc(Cl)cc1	inactive
O=C1c2oc3ccccc3c(=O)c2C(c2cccc(O)c2)N1Cc1ccc(F)cc1 (stereo not given)	inactive
Fc1ccccc1CNc1ccc(Cl)cc1	inactive
COC(=O)c1ccc(-c2nc3cc(Cl)c(N)cc3s2)cc1	inconclusive: 1.12 µM [inhibitor, full curve, poor fit]
O=C(NCCC(=O)N1CCCCC1)c1ccccc1Cl	inconclusive: 3.98 µM [activator, single point]
CCOc1ccccc1NC(=O)c1cc2ccc3cccnc3c2[nH]1	inconclusive: 14.1 µM [activator, single point]

SMILES	Potency
CCN(Cc1ccccc1)C(=O)c1cc2ccc3cccnc3c2[nH]1	inconclusive: 7.08 µM [activator, partial curve, poor fit]
COc1ccc(N(Cc2cccs2)C(=O)COc2ccc([N+](=O)[O-])cc2)cc1	inactive
O=C(Nc1ccccc1C(F)(F)F)c1cc(S(=O)(=O)N2CCOCC2)ccc1F	inactive
O=C(/C=C/c1ccccc1[N+](=O)[O-])c1ccc(F)cc1	inactive
O=C(COC(=O)c1ccc2c(c1)OCCO2)NCCC1=CCCCC1	inactive
CCOc1ccc(CCNC(=O)c2ccc(C)c(-n3c(C)nc4cccnc43)c2)cc1OCC	inactive
COC(=O)c1ccc2c(c1)N(C)S(=O)(=O)c1cnc(SCC(=O)C(C)(C)C)nc1-2	inconclusive: 6.31 µM [inhibitor, partial curve, poor fit]
O=S(=O)(c1ccc(NC(=S)N/N=C/c2cccc(Oc3ccccc3)c2)cc1)N1CCOCC1	inconclusive: 1 µM [inhibitor, full curve, poor fit]
CCC1([N+](=O)[O-])COC(c2ccc(OC)cc2)OC1 (stereo not given)	inconclusive: 35.5 µM [activator, single point]
Cc1ccc2sc(N(CCCN(C)C)C(=O)c3ccc(S(=O)(=O)N(C)Cc4ccccc4)cc3)nc2c1C	inconclusive: 35.5 µM [inhibitor, single point]
CCn1cc(C(=O)N(CCCN2CCOCC2)Cc2ccco2)c(=O)c2ccc(C)nc21	inactive
CCN(CC)C(=S)SCC(=O)c1ccccc1	inconclusive: 29.1 µM [inhibitor, single point]
Cc1cccc(-n2c(CNC(=O)c3ccc(S(=O)(=O)N(C)C)cc3)nnc2SCC(=O)Nc2ccc(F)cc2)c1	inconclusive: 25.9 µM [inhibitor, single point]
CN(C)S(=O)(=O)c1cc(NC(=O)CN2CCCc3ccccc32)ccc1Cl	inconclusive: 35.5 µM [inhibitor, single point]
Cc1ccc(CNC(=O)c2cnn3c(C)c(Cc4c(F)cccc4Cl)c(C)nc23)cc1	inactive
COCCCn1c(SCc2ccc(OC)cc2)nc2cc(OC)c(OC)cc2c1=N	inactive
O=C(NCc1ccc(Cl)cc1Cl)C1CCN(S(=O)(=O)c2ccc3c(c2)OCCCO3)CC1	inconclusive: 31.6 µM [inhibitor, single point]
Cc1cccc(N2C(=O)C3C4C=CC(C4)C3C2=O)c1 (stereo not given)	inconclusive: 8.91 µM [activator, partial curve]
Cc1ccc(-c2noc(-c3ccno3)n2)cc1	inconclusive: 12.6 µM [activator, single point]
Cc1ccccc1-n1nnnc1Sc1nnnn1-c1ccccc1	inconclusive: 25.1 µM [inhibitor, single point]
CCCCn1c(O)c(N=NC(=O)c2ccco2)c2ccccc21	inconclusive: 18.4 µM [inhibitor, single point]

Some of the entries so far, as a markdown table.

| SMILES | Potency |
| --- | --- |
| CCOc1ccccc1NC(=O)c1cc2ccc3cccnc3c2[nH]1 | inconclusive: 14.1 µM [activator, single point] |
| CCN(Cc1ccccc1)C(=O)c1cc2ccc3cccnc3c2[nH]1 | inconclusive: 7.08 µM [activator, partial curve, poor fit] |
| COc1ccc(N(Cc2cccs2)C(=O)COc2ccc([N+](=O)[O-])cc2)cc1 | inactive |
| O=C(Nc1ccccc1C(F)(F)F)c1cc(S(=O)(=O)N2CCOCC2)ccc1F | inactive |
| O=C(/C=C/c1ccccc1[N+](=O)[O-])c1ccc(F)cc1 | inactive |
| O=C(COC(=O)c1ccc2c(c1)OCCO2)NCCC1=CCCCC1 | inactive |
| CCOc1ccc(CCNC(=O)c2ccc(C)c(-n3c(C)nc4cccnc43)c2)cc1OCC | inactive |
| COC(=O)c1ccc2c(c1)N(C)S(=O)(=O)c1cnc(SCC(=O)C(C)(C)C)nc1-2 | inconclusive: 6.31 µM [inhibitor, partial curve, poor fit] |
| O=S(=O)(c1ccc(NC(=S)N/N=C/c2cccc(Oc3ccccc3)c2)cc1)N1CCOCC1 | inconclusive: 1 µM [inhibitor, full curve, poor fit] |
| CCC1([N+](=O)[O-])COC(c2ccc(OC)cc2)OC1 (stereo not given) | inconclusive: 35.5 µM [activator, single point] |
| Cc1ccc2sc(N(CCCN(C)C)C(=O)c3ccc(S(=O)(=O)N(C)Cc4ccccc4)cc3)nc2c1C | inconclusive: 35.5 µM [inhibitor, single point] |
| CCn1cc(C(=O)N(CCCN2CCOCC2)Cc2ccco2)c(=O)c2ccc(C)nc21 | inactive |
| CCN(CC)C(=S)SCC(=O)c1ccccc1 | inconclusive: 29.1 µM [inhibitor, single point] |
